Results are given in words; binding and its absence hold for the method and conditions named. For part of these data: Binding seen in cells or lysates may run through a third protein. Some binding calls cover weakened binding; strength is not graded here.

By UniProt entry, the sequences of proteins in these tests, tags left out. Where a name states a change or a piece, a line headed by the entry shows the natural chain unless it says otherwise. Residues count along the entry.
UniProt Q9D6F4: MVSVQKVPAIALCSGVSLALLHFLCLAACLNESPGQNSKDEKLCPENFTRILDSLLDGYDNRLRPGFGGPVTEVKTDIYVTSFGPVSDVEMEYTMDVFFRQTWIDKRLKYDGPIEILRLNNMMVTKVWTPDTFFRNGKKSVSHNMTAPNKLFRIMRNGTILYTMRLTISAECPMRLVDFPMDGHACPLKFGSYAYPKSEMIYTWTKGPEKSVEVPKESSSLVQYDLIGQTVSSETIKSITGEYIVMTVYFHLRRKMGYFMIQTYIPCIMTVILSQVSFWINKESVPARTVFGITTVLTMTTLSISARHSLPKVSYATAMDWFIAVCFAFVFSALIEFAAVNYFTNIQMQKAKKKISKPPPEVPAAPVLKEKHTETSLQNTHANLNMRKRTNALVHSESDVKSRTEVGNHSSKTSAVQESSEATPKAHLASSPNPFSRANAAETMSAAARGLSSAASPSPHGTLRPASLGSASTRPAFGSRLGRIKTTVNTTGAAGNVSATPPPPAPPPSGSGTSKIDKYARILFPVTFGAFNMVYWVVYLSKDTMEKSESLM
endogenous α4 subunit of GABAAR from adult mouse hippocampus (mouse (endogenous in hippocampus)): residues 36-552 of Q9D6F4
UniProt P24385: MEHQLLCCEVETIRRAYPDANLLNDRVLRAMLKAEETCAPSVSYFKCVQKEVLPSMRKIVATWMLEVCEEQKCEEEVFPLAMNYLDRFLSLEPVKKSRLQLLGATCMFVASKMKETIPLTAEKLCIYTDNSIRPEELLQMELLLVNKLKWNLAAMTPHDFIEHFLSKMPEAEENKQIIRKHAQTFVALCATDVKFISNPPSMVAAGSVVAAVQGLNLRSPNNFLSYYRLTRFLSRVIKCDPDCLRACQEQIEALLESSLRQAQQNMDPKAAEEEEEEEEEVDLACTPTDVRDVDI
UniProt P25322: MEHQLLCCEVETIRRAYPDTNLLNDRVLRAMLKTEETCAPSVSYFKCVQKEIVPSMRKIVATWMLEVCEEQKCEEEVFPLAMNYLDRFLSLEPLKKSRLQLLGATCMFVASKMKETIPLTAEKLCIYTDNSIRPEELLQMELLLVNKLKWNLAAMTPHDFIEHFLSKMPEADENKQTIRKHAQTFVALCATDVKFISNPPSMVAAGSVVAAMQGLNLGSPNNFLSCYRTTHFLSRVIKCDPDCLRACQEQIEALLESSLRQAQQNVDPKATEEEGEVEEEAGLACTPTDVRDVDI

The target in test [1] is GST fusion of the C-terminus of α4 (354-552aa) (mouse) (UniProt Q9D6F4). Kind of test: pull-down; 400 ng of GST or GST fusion immobilised on Glutathione-Sepharose 4B beads, incubated with in vitro-translated Flag-Ccnd1; 20 mM HEPES-KOH pH 7.5, 150 mM KCl, 5 mM MgCl2, 0.5 mM EDTA, 0.1% NP-40, 30 min at room temperature; only the target purified.
The target of test [2] is Flag-tagged Ccnd1 expressed in HEK-293T cells (human) (UniProt P24385). In words: co-IP; HEK-293T cells 48 h after transfection, RIPA buffer; Flag-Ccnd1 precipitated with M2 Flag antibody and protein G dynabeads; blots with anti-HA and anti-Flag.
Test [3] addresses endogenous α4 subunit of GABAAR from adult mouse hippocampus (mouse (endogenous in hippocampus)) (UniProt Q9D6F4). In words: co-IP; endogenous α4 precipitated from adult mouse hippocampal extracts in RIPA buffer with a rabbit polyclonal antibody and Protein A magnetic beads; anti-Flag as mock control; washes with RIPA without SDS.
For test [4], the target named is Cyclin D1 (Ccnd1), yeast two-hybrid bait (UniProt P24385). In words: two-hybrid; yeast two-hybrid screening, Ccnd1 as bait, adult mouse brain library as prey.

Turning to “Flag-Ccnd1 produced by in vitro transcription and translation (from UniProt P24385 1-295)”, in test [1], the binding result is “binds”.
Regarding “HA-tagged C-terminal region of α4 (354-552aa) (from UniProt Q9D6F4 354-552) (domain or fragment)”, the binding entry in test [2] is recorded as “binds”.
With “endogenous Ccnd1 from adult mouse hippocampus (from UniProt P25322 1-295)”, the binding result in test [3] is “binds weakly”.
For “α4 subunit of GABAA receptors, two-hybrid clone spanning amino acids 354–552 (from UniProt Q9D6F4 354-552) (domain or fragment)”, the binding entry in test [4] is reported as “binds”.
In the case of “α4 subunit of GABAA receptors, two-hybrid clone spanning amino acids 385–552 (from UniProt Q9D6F4 385-552) (domain or fragment)”, in test [4], the binding result is recorded as “binds”.
As for “α4 subunit of GABAA receptors, two-hybrid clone spanning amino acids 386–552 (from UniProt Q9D6F4 386-552) (domain or fragment)”, the binding result in test [4] is reported as “binds”.

(Values after article PMC10491536.)
